# Source: the supplement of paper PMC12819154, “High-throughput peptide-centric local stability assay extends protein–ligand identification to membrane proteins, tissues and bacteria” (Nature Structural & Molecular Biology, 2025)
# Amino acid sequences for entries named in this document (tags omitted). A change or cut given only in a name is not applied to a line headed by its entry.
# UniProt Q8K039: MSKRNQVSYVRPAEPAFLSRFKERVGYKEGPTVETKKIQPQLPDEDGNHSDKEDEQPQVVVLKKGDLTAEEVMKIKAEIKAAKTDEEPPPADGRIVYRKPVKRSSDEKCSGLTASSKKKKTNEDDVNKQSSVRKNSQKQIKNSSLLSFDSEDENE
# UniProt Q8K4G5: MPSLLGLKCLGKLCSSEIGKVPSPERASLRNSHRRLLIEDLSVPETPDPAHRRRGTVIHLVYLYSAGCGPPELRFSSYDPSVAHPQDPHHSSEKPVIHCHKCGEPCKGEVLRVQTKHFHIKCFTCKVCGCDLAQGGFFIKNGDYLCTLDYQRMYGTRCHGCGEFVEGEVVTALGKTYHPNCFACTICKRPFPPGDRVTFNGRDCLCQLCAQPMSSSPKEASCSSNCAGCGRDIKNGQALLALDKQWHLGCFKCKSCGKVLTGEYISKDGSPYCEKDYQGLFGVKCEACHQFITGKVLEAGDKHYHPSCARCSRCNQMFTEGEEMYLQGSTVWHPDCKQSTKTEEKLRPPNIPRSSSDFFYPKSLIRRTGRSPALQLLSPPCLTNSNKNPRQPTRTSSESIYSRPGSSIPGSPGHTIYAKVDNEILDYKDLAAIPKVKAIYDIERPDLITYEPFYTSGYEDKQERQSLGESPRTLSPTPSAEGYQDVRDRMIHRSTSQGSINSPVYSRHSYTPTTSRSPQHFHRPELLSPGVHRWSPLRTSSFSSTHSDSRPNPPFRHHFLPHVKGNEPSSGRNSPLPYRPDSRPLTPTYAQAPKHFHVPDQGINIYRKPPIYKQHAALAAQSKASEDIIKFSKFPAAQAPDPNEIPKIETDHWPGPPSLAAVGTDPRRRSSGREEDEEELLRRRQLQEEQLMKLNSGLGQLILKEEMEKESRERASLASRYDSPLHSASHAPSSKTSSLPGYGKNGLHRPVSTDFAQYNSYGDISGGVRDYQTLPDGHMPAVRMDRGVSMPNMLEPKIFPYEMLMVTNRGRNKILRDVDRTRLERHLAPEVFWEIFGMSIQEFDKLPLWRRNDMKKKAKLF
# UniProt Q8K1H1: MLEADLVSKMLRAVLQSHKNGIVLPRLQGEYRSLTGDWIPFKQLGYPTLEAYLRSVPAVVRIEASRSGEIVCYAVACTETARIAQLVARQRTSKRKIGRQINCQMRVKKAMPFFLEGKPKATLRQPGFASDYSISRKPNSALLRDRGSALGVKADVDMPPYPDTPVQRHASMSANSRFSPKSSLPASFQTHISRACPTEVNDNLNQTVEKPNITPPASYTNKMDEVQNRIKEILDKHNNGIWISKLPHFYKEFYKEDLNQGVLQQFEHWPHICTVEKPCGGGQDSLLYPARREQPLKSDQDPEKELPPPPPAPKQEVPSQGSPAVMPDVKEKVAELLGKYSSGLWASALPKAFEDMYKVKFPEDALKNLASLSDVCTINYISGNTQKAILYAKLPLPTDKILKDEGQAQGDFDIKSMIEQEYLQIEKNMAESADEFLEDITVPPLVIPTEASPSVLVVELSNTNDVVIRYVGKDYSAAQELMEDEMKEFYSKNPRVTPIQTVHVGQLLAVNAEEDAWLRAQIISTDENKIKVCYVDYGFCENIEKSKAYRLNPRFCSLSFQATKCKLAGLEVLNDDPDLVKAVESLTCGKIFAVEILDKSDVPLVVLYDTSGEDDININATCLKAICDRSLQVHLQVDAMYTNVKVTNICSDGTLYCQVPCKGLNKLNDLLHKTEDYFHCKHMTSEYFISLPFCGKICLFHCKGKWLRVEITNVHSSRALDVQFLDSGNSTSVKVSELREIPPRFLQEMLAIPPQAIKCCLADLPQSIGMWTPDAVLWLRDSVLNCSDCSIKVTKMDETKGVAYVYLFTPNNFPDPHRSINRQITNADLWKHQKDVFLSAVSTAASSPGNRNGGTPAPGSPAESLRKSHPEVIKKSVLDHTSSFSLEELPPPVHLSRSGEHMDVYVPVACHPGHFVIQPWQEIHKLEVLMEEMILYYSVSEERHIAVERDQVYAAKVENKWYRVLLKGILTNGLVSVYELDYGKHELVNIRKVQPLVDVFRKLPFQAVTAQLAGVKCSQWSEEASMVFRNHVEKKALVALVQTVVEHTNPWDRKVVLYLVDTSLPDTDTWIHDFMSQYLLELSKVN
# UniProt Q8R1Q8: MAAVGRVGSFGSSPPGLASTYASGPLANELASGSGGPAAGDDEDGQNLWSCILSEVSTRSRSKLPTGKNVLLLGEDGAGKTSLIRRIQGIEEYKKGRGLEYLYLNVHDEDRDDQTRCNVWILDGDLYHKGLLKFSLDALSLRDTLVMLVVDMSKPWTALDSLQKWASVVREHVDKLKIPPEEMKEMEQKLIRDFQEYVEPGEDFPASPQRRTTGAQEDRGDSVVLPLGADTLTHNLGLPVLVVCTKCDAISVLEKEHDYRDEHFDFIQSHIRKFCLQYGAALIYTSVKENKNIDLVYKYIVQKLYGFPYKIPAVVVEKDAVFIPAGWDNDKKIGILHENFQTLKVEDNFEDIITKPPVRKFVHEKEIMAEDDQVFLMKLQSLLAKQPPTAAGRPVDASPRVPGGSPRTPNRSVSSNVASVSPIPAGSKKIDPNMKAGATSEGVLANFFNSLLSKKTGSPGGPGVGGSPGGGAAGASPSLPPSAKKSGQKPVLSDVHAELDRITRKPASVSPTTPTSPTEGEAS
# UniProt Q8R3E3: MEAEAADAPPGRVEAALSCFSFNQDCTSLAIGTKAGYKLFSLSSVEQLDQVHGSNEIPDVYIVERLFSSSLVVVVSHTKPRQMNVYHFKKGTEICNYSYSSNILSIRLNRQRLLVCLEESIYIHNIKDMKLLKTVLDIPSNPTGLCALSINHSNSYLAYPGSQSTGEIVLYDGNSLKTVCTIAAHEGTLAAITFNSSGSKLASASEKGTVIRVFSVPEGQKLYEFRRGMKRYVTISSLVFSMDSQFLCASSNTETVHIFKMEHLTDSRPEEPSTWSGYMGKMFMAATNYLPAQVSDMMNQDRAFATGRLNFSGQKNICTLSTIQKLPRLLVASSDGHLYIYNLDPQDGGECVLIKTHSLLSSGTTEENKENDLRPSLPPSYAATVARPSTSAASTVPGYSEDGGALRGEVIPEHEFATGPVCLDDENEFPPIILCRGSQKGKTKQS
# UniProt Q8K3J9: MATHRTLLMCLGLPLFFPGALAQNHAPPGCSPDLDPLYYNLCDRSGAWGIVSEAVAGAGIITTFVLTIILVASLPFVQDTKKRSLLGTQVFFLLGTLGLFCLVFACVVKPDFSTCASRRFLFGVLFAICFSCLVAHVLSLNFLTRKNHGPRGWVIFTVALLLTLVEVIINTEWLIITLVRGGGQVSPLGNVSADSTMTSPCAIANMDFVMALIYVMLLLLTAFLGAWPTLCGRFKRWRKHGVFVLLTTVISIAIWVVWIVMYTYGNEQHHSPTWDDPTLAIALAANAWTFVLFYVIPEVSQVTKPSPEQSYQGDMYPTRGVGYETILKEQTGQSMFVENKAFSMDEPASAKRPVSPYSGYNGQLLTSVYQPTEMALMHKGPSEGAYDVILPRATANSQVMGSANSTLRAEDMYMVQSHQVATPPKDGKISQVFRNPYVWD
# UniProt Q8K4K6: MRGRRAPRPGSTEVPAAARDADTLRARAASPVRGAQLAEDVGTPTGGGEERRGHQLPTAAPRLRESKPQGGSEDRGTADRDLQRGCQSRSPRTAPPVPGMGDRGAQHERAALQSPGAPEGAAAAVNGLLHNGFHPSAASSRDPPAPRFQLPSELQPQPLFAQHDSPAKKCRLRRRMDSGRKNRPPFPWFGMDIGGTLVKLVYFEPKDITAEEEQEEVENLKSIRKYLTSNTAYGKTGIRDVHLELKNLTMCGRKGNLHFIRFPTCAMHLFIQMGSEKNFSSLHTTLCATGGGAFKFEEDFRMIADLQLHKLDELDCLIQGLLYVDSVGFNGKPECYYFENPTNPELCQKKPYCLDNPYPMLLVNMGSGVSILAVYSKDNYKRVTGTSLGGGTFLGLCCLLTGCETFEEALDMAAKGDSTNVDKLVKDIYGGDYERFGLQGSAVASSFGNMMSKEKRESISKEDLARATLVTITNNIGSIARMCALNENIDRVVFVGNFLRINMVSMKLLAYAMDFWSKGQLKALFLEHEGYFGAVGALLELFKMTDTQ
# UniProt Q8R0H9: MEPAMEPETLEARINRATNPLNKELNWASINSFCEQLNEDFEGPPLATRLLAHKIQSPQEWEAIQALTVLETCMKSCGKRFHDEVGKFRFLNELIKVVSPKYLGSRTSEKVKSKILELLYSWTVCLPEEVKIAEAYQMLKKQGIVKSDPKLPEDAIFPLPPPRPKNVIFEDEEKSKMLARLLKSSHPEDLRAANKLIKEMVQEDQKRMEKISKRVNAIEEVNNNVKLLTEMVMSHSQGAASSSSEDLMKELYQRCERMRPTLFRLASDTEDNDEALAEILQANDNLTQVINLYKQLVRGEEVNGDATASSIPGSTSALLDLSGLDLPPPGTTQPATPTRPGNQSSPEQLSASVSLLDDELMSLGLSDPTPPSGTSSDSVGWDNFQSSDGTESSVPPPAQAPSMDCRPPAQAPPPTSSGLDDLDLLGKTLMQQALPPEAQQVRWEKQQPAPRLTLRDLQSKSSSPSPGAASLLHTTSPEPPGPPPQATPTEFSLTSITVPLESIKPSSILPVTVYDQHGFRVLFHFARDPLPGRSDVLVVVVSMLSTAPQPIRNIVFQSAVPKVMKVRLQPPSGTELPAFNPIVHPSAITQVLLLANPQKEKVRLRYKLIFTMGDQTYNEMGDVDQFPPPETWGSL
# UniProt Q8K0T0: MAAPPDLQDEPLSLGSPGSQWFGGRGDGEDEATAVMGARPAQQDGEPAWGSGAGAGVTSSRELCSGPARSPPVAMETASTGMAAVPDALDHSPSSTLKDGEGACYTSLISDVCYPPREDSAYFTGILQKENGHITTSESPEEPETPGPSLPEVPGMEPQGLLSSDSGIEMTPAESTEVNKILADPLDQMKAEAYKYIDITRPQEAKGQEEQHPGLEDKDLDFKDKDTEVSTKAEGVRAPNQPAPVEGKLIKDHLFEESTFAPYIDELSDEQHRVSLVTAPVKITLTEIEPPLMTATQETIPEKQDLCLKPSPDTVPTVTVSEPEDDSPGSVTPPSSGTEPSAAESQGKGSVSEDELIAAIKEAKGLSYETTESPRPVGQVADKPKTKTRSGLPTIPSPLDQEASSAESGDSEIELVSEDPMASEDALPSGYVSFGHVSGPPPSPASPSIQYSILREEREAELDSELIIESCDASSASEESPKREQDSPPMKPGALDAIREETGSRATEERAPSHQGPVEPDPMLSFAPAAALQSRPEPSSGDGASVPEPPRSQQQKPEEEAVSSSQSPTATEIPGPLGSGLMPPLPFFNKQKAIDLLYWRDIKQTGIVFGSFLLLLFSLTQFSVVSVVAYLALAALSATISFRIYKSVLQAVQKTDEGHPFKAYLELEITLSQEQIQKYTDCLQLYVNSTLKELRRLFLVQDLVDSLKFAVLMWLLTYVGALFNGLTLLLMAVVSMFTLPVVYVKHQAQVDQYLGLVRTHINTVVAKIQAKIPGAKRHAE
# UniProt Q8QZY2: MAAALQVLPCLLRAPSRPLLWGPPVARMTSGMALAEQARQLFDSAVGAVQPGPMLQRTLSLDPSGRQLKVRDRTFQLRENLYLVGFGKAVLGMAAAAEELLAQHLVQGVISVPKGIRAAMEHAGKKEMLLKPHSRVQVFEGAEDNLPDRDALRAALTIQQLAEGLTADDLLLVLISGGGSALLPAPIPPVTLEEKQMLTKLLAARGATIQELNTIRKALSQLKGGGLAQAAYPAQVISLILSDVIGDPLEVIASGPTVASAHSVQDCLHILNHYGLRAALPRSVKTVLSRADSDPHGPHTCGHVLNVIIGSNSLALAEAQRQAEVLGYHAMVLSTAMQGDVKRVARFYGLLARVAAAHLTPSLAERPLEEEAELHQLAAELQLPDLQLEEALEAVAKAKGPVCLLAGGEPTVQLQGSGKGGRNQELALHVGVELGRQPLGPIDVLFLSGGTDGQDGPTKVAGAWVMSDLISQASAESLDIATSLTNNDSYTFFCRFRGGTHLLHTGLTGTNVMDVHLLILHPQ
# UniProt Q8R1J1: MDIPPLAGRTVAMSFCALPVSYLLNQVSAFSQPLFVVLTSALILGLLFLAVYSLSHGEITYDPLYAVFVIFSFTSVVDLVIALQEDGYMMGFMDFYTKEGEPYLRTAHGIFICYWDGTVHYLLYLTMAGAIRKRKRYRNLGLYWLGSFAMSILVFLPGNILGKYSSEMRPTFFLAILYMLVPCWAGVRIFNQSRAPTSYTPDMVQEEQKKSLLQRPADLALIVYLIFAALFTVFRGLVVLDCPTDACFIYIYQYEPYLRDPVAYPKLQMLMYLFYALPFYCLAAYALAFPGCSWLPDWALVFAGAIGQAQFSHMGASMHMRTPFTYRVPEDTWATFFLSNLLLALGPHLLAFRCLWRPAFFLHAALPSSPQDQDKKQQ
# UniProt Q8K3C3: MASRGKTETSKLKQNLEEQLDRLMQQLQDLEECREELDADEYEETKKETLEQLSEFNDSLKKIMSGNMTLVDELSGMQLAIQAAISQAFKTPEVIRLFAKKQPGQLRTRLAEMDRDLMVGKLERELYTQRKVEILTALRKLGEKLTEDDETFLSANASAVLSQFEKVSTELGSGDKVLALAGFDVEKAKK
# The other results are listed elsewhere or left out. Most entries show no effect beyond the scatter of the controls.
# Compound: CN[C@@H]1C[C@H]2O[C@@](C)([C@@H]1OC)n1c3ccccc3c3c4c(c5c6ccccc6n2c5c31)C(=O)NC4 [staurosporine]
# Experiment: log2 fold change of pooled soluble protein (PISA), ligand vs vehicle (log2 ratio); higher = more thermally stabilized
# Settings: ligand concentration: 20 uM; assay format: PISA pool 52.9/55.5/58.6 C
row,Target,log2 fold change of pooled soluble protein
1,UniProt Q8VBT6,-0.253
2,UniProt Q8K039,0.038
3,UniProt Q8CJH3,-0.189
4,UniProt Q8VC31,0.0562
5,UniProt Q8R238,0.0118
6,UniProt Q8R0F6,-0.147
7,UniProt Q8K4G5,-0.0767
8,UniProt Q8CIM7,0.234
9,UniProt Q8K3H0,-0.0531
10,UniProt Q8K4L3,0.0416
11,UniProt Q8K1H1,0.129
12,UniProt Q8R1Q8,0.0452
13,UniProt Q8CJ61,0.0865
14,UniProt Q8K1R7,0.288
15,UniProt Q8CHP6,-0.21
16,UniProt Q8CI08,-0.076
17,UniProt Q8R3E3,0.215
18,UniProt Q8CIH9,-0.0468
19,UniProt Q8CHC4,0.117

# Another view of part of the listing above.
row	Target	log2 fold change of pooled soluble protein
1	UniProt Q8VBT6	-0.253
2	UniProt Q8K039	0.038

# (cont.)

row,Target,log2 fold change of pooled soluble protein
1,UniProt Q8K1I7,-0.0857
2,UniProt Q8K3J9,0.0222
3,UniProt Q8K4K6,0.289
4,UniProt Q8K0E8,0.0694
5,UniProt Q8K337,-0.589
6,UniProt Q8R0H9,0.0446
7,UniProt Q8K0T0,-0.0395
8,UniProt Q8QZY2,0.0385
9,UniProt Q8R332,-0.0166
10,UniProt Q8CJG0,-0.124
11,UniProt Q8K2C7,0.0539
12,UniProt Q8R5I6,0.417
13,UniProt Q8R3Q6,-0.00809
14,UniProt Q8R1J1,-0.106
15,UniProt Q8K3C3,-0.126
16,UniProt Q8K4F5,-0.015
17,UniProt Q8JZK9,0.125
18,UniProt Q8K411,-0.011
